The test addresses CatG (Homo sapiens, UniProt P08311). Kind of test: Fluorogenic substrate hydrolysis kinetics with CatG. The test is classed as biochemical. The conditions noted are these: Table 2; hydrolysis by CatG; enzyme could not be saturated, so no separate kcat and Km; listed as Ac-hCha-Phe(guan)-Oic-Arg-ACC. The procedure: Kinetic parameters of selected substrates were determined in 50 mM Hepes, 0.1 M NaCl, 0.1%TRITON-X100, pH 7.45 assay buffer on 96 wells Corning plates. Measurements were performed for a minimum of 20 minutes. The excitation wavelength was 355 nm, and the emission wavelength was 460 nm, with a cutoff of 455 nm. Human NE and CatG were purchased from Biocentrum, Krakow, Poland and PR3 from Athens Research Technology, Athens, Georgia, USA. Recombinant human NSP4 was expressed and purified as previously described.
In addition to NSP4, neutrophils contain three other structurally-related serine proteases NE, PR3 and CatG [1] that are also stored in azurophilic granules. To estimate the degree of eventual cross reactivity of the optimal substrate with these three serine proteases, we measured kinetic parameters for each enzyme on PK421. […] In the case of CatG we were unable to saturate the enzyme and therefore could not calculate the individual values of kcat and Km. Lack of measurable activity toward PR3 and NE made this sequence an ideal candidate for the design of an activity based probe.

By UniProt entry, the sequences of proteins in these tests, tags left out. Residues count along the entry.
UniProt P08311, 21-255 limits assumed: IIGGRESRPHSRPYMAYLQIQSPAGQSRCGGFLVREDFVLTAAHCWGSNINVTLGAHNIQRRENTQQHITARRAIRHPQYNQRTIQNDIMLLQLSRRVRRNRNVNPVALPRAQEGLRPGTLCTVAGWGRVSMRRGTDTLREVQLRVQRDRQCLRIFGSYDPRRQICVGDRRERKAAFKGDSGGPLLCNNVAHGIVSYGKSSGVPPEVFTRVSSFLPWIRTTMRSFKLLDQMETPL

Certain results were filed several times, with different values. The other results are left out here. There may be further records. The records of an entry do not match, cause unknown; dose, time, organism, isomer or construct need not be as stated for each record.

As to `CC(=O)N[C@@H](CCC1CCCCC1)C(=O)N[C@@H](Cc1ccc(NC(=N)N)cc1)C(=O)N1C2CCCCC2C[C@H]1C(=O)N[C@@H](CCCNC(=N)N)C(=O)Nc1ccc2c(CC(N)=O)cc(=O)oc2c1` (stereo partly shown), the kcat/Km result was “only very weakly hydrolyzed and 477±0.9 M^-1s^-1”.

Source of the values: paper PMC4501687, “Design of a Selective Substrate and Activity Based Probe for Human Neutrophil Serine Protease 4” (PLoS ONE, 2015).
